Values quoted from earlier work, collected in patent US7833998B2, “Oral neurotherapeutic cephalosporin sulfoxide and sulfone-containing compositions” (Revaax Pharmaceuticals, LLC, priority 2003, dated 2010).
At least one structure is not confirmed: it was looked up by name or label, or the drawing left a doubt. Some results were stated once for a whole list of compounds, not compound by compound.

System: golden hamsters
Details: King et al. 2001, cited from earlier work; for time to find seeds: hamsters treated with traditional anxiolytics, untreated 1-2 minutes

SMILES	time to find seeds	effect on seed finding (effective anxiolytics at doses of 1 μg/kg and above)
O=C1CC2(CCCC2)CC(=O)N1CCCCN1CCN(c2ncccn2)CC1 [buspirone]	less than 20 seconds	–
CN1CCN(C2=Nc3cc(Cl)ccc3Nc3ccccc32)CC1 [clozapine]	–	ineffective
CNCCC(Oc1ccc(C(F)(F)F)cc1)c1ccccc1 (stereo not drawn) [fluoxetine]	less than 20 seconds	–
